According to patent publication US20080070939A1, “LOCAL […] COMPOSITIONS CONTAINING DEXTROROTATORY MORPHINAN DERIVATIVES OR PHARMACEUTICALLY ACCEPTABLE SALTS THEREOF” (CHI MEI FOUNDATION HOSPITAL, priority 2006, published 2008):
Several values for one entry are separate records, joined by “and”; a condition that tells them apart may be missing. Equal entries are not always repeated. Structures can show the parent of a compound that is named as a salt.

Legend:
sciatic nerve = assay: Sciatic nerve blockade after injection at the sciatic nerve notch in rats; type: in vivo; parameters: AUC of time-% PE curve, sciatic nerve blockade of motor function / AUC of time-% PE curve, sciatic nerve blockade of proprioception / AUC of time-% PE curve, sciatic nerve blockade of nociceptive reaction: unit not given beside the values
Protocol: Male Sprague-Dawley rats (weighing about 300 to 350 g); for each dose of each drug, n=6.
In brief, the rats were slightly anesthetized by inhalation of a low concentration of sevoflurane. Then, 200 μL of tested drugs were injected at the sciatic nerve notch at the left hind limb of the rat using a 27-gauge needle connected to a tuberculin syringe (Becton Dickinson, USA, model BND309623-BX). Thereafter, development of sciatic nerve blockade was observed from the paralysis of the left hind limb of the rat. The right hind limb served as a control during the subsequent functional assay
For proprioception, the front half of the rat body and the right hind limb were off the ground at the same time so that the rat was standing on the left hind limb during the measurement.
The differences resided in that: The sciatic nerve notch injections of ED25, ED50 and ED75 were conducted based on the method described in the preceding section “A. Drug injection” of this example. Evaluations of motor function, proprioception and nociceptive reaction were conducted based on the method described in section “B. Neurobehavioral evaluations” of this example.
The differences resided in that: Before the statistical analysis, Shapiro-Wilk test was used to evaluate whether the data were, theoretically, normally distributed.

[1] = Systemic safety indices: mortality 24 hours after intraperitoneal injection in rats; conditions: rat, in vivo, ip
Protocol: Essentially, each drug was injected intraperitoneally into the rats (n=8). The number of dead rats was observed after 24 hours, and the rate of mortality (%) was calculated. Thereafter, the doses of each drug and the relative mortality were plotted to obtain dose-mortality curves of the drugs. […] The safety index (LD50/ED50) of each drug was calculated using the LD50 thus obtained and the ED50 obtained in the section “C. Potency evaluation” of this example.

Male Sprague-Dawley rats = assay: Infiltrative cutaneous anesthesia (inhibition of cutaneous trunci muscle reflex, CTMR) after subcutaneous injection in rats; type: in vivo; conditions: 2ED50 when administered independently, ED50 for co-administration, mean ± SEM, hydrochloride
Protocol: Male Sprague-Dawley rats (weighing about 200 to 250 g); for each dose of each drug, n=8.
In brief, hairs on the dorsal surface (about 10×10 cm^2) of the thoracolumbar region of the rat were shaved, and the shaved surface was sterilized with iodine for preparation. To reduce the number of animals used, the back of the rat was further divided into left and right parts. One drug was injected first at the right part. After a washout period of one week, another drug was injected at the left part.
0.6 mL of drug was injected subcutaneously under the dorsal surface of the thoracolumbar region of the rat using a 30-gauge needle attached to a syringe (Becton Drive, Franklin Lakes, USA). The subcutaneous injection would result in a circular elevation (i.e., a wheal) of the skin, about 2 cm in diameter. The elevation was marked with ink within 1 minute after injection.
CTMR refers to the reflex movement of the skin of the back caused by twitching of the lateral thoracispinal muscle in response to local dorsal cutaneous stimulation. Essentially, a von Frey filament (No.15; Somedic Sales AB, Sweden) to which a cut end of an 18-gauge needle was affixed was used to produce a standard nociceptive stimulus (strength: 19 g). Six pinpricks (at a frequency of 0.5-1 Hz) were applied to a single marked wheal during each test. […]

[2] = rats, 2ED50 when administered independently, ED50 of each drug when co-administered, mean ± SEM, hydrochloride

Structure (SMILES): CCN(CC)CC(=O)Nc1c(C)cccc1C [Lidocaine hydrochloride, reference compound]
- ED50 (sciatic nerve; Rattus norvegicus, read-out: Mean ED50): 2.53 mg/kg
- AUC of time-% PE curve, sciatic nerve blockade of motor function (sciatic nerve; [2]): 2594 ± 284 and 2692 ± 248 and 2505 ± 199
- AUC of time-% PE curve, sciatic nerve blockade of nociceptive reaction (sciatic nerve; [2]): 2886 ± 164 and 2957 ± 253 and 2694 ± 248
- AUC of time-% PE curve, sciatic nerve blockade of proprioception (sciatic nerve; [2]): 2682 ± 204 and 2808 ± 218 and 2534 ± 196
- LD50 at 24 h [1]: 196 mg/kg
- AUC (% min.) (Male Sprague-Dawley rats): 2700 ± 360 % min. and 2700 ± 410 % min.
